# Experimental data reported in PubChem BioAssay AID1487 (National Center for Advancing Translational Sciences (NCATS), 2009).
# The list shows a part of the results. The main result of the screen is listed elsewhere. These columns were measured beside it and carry no call. Most of these compounds were active or inconclusive in the main read-out, so they are no random draw. Words in brackets tell the shape of the fitted curve; partial curves, single points and poor fits give uncertain potencies.
# Assay: qHTS Assay for Modulators of Lamin A Splicing
# Conditions: HeLa LMNA splicing GFP/RFP minigene ratio, 48 h
# Procedure, shortened: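 S3 HeLa cells stably expressing lamin A-EGFP splicing minigene plus DsRed2, 600 cells/well, 48 h compound exposure at 37C. Laser-scanning cytometry; analysed as GFP (500-530 nm)/RFP (575-640 nm) total intensity ratio; 0.5% DMSO vehicle.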
# [1] = measured here: GFP splicing reporter channel
# [2] = measured here: RFP viability control channel
Compound,AC50 [1],AC50 [2]
CC(=O)[C@@]1(O)CC[C@H]2[C@@H]3CCC4=CC(=O)CC[C@]4(C)[C@H]3[C@@H](O)C[C@@]21C,"11.2 µM [rising, partial curve, poor fit]","11.2 µM [rising, partial curve, poor fit]"
CC1CCC(C(C)C)C(OC(=O)CSc2n[nH]c(=O)[nH]c2=O)C1 (configuration not stated),"8.91 µM [rising, partial curve]","11.2 µM [rising, partial curve, poor fit]"
C/C(=N/NC(=O)c1cc(C(C)C)[nH]n1)c1cccs1,"5.62 µM [falling, partial curve]","6.31 µM [falling, partial curve, poor fit]"
O=C1CN(C(=O)CSc2nc3ccccc3c(=O)n2Cc2ccc(F)cc2)c2ccccc2N1,–,"31.6 µM [rising, single point]"
OC1C=CSc2nc3ccccc3n21 (configuration not stated),"35.5 µM [falling, single point]","35.5 µM [falling, single point]"
Cc1nnc(SCC(=O)Nc2nc(C(C)(C)C)cs2)s1,–,"35.5 µM [rising, single point]"
CCOC(=O)N1CCC(N(CCOC)C(=S)Nc2cccc(SC)c2)CC1,"35.5 µM [falling, single point]","35.5 µM [falling, single point]"
O=C(CCCNS(=O)(=O)c1cccs1)N1CCN(c2ccc(F)cc2)CC1,–,"11.2 µM [rising, partial curve, poor fit]"
COc1ccc(Oc2coc3cc(OC(=O)N4CCOCC4)ccc3c2=O)cc1,–,"28.2 µM [rising, single point]"
COc1ccc(NC(=O)Cn2nc(C(F)(F)F)c3c2CCCC3)cc1OC,"11.2 µM [rising, partial curve, poor fit]","12.6 µM [rising, partial curve]"
C/C(=N\Nc1nc2ccccc2s1)c1cccs1,–,"14.1 µM [rising, partial curve, poor fit]"
O=C(Nc1ccc(S(=O)(=O)NCc2ccco2)cc1)C1CCCCC1,"0.0891 µM [rising, full curve, poor fit]",–
COc1ccc(NS(=O)(=O)c2cc(S(C)(=O)=O)ccc2C)cc1,–,"2.82 µM [rising, single point]"
Cc1ccc(CCNC(=O)CCS(=O)(=O)c2cc3c(cc2Cl)NC(=O)CO3)cc1,"25.1 µM [falling, partial curve, poor fit]","35.5 µM [falling, partial curve, poor fit]"
CC(C)NC(=O)CN1C(=O)c2cccnc2Sc2ccccc21,"0.00891 µM [falling, full curve, poor fit]","0.0158 µM [falling, full curve]"
C/C(=N\NS(=O)(=O)c1ccc(C)cc1)c1cc2ccccc2oc1=O,–,"5.01 µM [rising, single point]"
COc1ccccc1NC(=O)COc1ccccc1C(=O)c1cnn(-c2ccccc2)c1,–,"11.2 µM [rising, partial curve, poor fit]"
COC(=O)c1c(-c2ccc(Cl)cc2)noc1N1CCN(c2ccc(F)cc2)CC1,"3.55 µM [falling, single point]","7.94 µM [falling, partial curve]"
CCOc1ccc(CNC(=O)CCS(=O)(=O)c2ccc3c(c2)oc(=O)n3C)cc1,–,"0.316 µM [falling, partial curve, poor fit]"
CC(C)CN(C[C@@H](O)[C@H](Cc1ccccc1)NC(=O)O[C@H]1CCOC1)S(=O)(=O)c1ccc(N)cc1,"0.562 µM [rising, partial curve, poor fit]","0.631 µM [rising, full curve, poor fit]"
C=C1CC2C3C=C(C)C4=CC(=O)CCC4(C)C3CCC2(C)[C@@]1(OC(C)=O)C(C)=O (some centres not stated),–,"1.58 µM [rising, partial curve]"
c1ccc2c(c1)[nH]c1c(N3CCN(C4CCCCC4)CC3)ncnc12,–,"35.5 µM [rising, single point]"
N#C/C(=C\c1ccccc1)C(=O)NCCN1CCOCC1,–,"0.447 µM [falling, full curve, poor fit]"
COc1cc(Cn2c(-c3nonc3N)nc3ccccc32)ccc1C,–,"0.01 µM [rising, full curve, poor fit]"
COc1ccc(C(=O)NC(=S)Nc2ccccc2N2CCCCC2)cc1[N+](=O)[O-],–,"12.6 µM [rising, partial curve, poor fit]"
C[C@@H]1C[C@@H]2[C@H]3CCC4=CC(=O)C=C[C@]4(C)[C@]3(F)[C@@H](O)C[C@]2(C)[C@@]1(O)C(=O)CO,"14.1 µM [falling, single point]",–
Cc1cccnc1NC(=O)C1c2ccccc2Oc2ccccc21,–,"0.00708 µM [falling, full curve, poor fit]"

Compound,AC50 [1],AC50 [2]
CCOC(=O)c1c(C)n(C)c2ccc(OC(=O)c3ccco3)cc12,"0.1 µM [rising, full curve, poor fit]",–
Cc1coc2cc3oc(=O)c(CCC(=O)O)c(C)c3cc12,"0.0398 µM [falling, full curve]","0.0398 µM [falling, full curve, poor fit]"
CC1CCCCN1S(=O)(=O)c1ccc(C(=O)Nc2nnc(-c3ccccc3Cl)o2)cc1 (configuration not stated),–,"1.58 µM [rising, full curve]"
Cc1ccc(NC(=O)CS(=O)CC(=O)N(CC(=O)NC2CCCC2)c2ccc3c(c2)OCCO3)cc1 (configuration not stated),–,"1.78 µM [falling, single point]"
CN(CCOc1ccccc1)c1ccc(S(=O)(=O)N2CCCCC2)cn1,"31.6 µM [rising, single point]","35.5 µM [rising, single point]"
Cc1cc(C)nc(N/N=C/c2ccc(N3CCOCC3)cc2)n1,"0.00447 µM [falling, full curve, poor fit]","0.00316 µM [falling, full curve, poor fit]"
O=C(O)C1=CCNCC1,"0.00501 µM [falling, full curve, poor fit]","6.31 µM [falling, partial curve, poor fit]"
Cc1ccccc1OCC(=O)Nc1ccc2nc(SCC(N)=O)sc2c1,–,"4.47 µM [falling, partial curve, poor fit]"
CCOC(=O)c1ccc(NCc2ccc3c(c2)OCO3)cc1,"25.1 µM [rising, single point]","35.5 µM [rising, single point]"
COc1ccc(C(=O)/C=C/C(=O)N(Cc2ccccc2)C(C(=O)NC2CCCCC2)c2ccncc2)c(O)c1 (configuration not stated),–,"10 µM [rising, partial curve, poor fit]"
CC(C)OC(=O)CC(=O)CSc1nc(-c2ccc(F)cc2)cc(-c2ccccc2)c1C#N,–,"12.6 µM [rising, partial curve, poor fit]"
O=C(Nc1ccc(F)cc1)c1cnc(-c2ccccc2)nc1-c1ccccc1,"15.8 µM [falling, single point]","17.8 µM [falling, partial curve]"
Cc1csc(N(C(=O)c2cccc(S(=O)(=O)N(C)C)c2)c2ccccc2)n1,–,"35.5 µM [rising, single point]"
O=[N+]([O-])c1cc(S(=O)(=O)c2ccc(N3CCCCC3)c([N+](=O)[O-])c2)ccc1N1CCCCC1,"2.82 µM [rising, full curve]","4.47 µM [rising, full curve]"
COc1cccc(/C=N/NC(=O)c2ccc(-c3ccccc3)cc2)c1O,–,"5.01 µM [rising, full curve, poor fit]"
C#C[C@]1(O)CC[C@H]2C3CCC4=Cc5oncc5CC4(C)C3CCC21C (some centres not stated),"0.178 µM [rising, full curve]","0.178 µM [rising, full curve, poor fit]"
O=C(Cn1ncn2c(cc3ccccc32)c1=O)NCc1ccco1,–,"11.2 µM [falling, partial curve, poor fit]"
Cc1ccc(-n2nnnc2SCC(=O)N2c3ccccc3NC(=O)C2(C)C)cc1,"11.2 µM [rising, single point]",–
CCOC(=O)/C(=N\Nc1ccc(C(C)=O)cc1)c1csc(Nc2ccccc2)n1,–,"2.82 µM [falling, full curve]"
O=S1(=O)c2cccc3cccc(c23)N1Cc1nnc(-c2ccccc2Br)o1,"2.82 µM [rising, full curve, poor fit]","5.62 µM [rising, full curve]"
O=C(CSc1ncccc1C(=O)Oc1ccccc1Cl)Nc1ccccc1Cl,–,"1.41 µM [falling, partial curve]"
CC(C)Nc1nc(NC(C)C)nc(N(C#N)CCOc2ccc(Cl)cc2Cl)n1,–,"35.5 µM [rising, single point]"
CN(C)CCC=C1c2ccccc2C=Cc2ccccc21,"28.2 µM [falling, partial curve, poor fit]",–
O=C(CSc1nnc(-c2ccccc2O)n1Cc1ccccc1)NNC(=O)c1ccccc1O,–,"35.5 µM [rising, single point]"
CC(=O)NC1=NN(C(C)=O)C(C)(c2ccc(Cl)s2)S1 (configuration not stated),–,"3.16 µM [rising, full curve]"
CC1CC(N(C(=O)c2ccc(Cl)cc2)c2ccccc2)c2ccccc2N1C(=O)c1ccco1 (configuration not stated),–,"35.5 µM [rising, single point]"

# Looked up one by one from the entries so far:
Compound,AC50 [1],AC50 [2]
CC(C)OC(=O)CC(=O)CSc1nc(-c2ccc(F)cc2)cc(-c2ccccc2)c1C#N,–,"12.6 µM [rising, partial curve, poor fit]"
CCOC(=O)c1c(C)n(C)c2ccc(OC(=O)c3ccco3)cc12,"0.1 µM [rising, full curve, poor fit]",–
O=C(Cn1ncn2c(cc3ccccc32)c1=O)NCc1ccco1,–,"11.2 µM [falling, partial curve, poor fit]"
